Measured values: publication PMC2710002, “KCNE1 and KCNE3 β-Subunits Regulate Membrane Surface Expression of Kv12.2 K^+ Channels In Vitro and Form a Tripartite Complex In Vivo” (PLoS ONE, 2009)
Results are given in words; binding and its absence hold for the method and conditions named. In cells and extracts the contact can be indirect. Some results given as binding are weak or reduced against the parent protein; the word gives no strength.

By UniProt entry, the sequences of proteins in these tests, tags left out.
UniProt P23299: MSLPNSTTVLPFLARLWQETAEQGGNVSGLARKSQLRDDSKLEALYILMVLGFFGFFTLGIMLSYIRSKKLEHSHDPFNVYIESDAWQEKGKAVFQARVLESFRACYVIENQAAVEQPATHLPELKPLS

T1: Kv12.2 channel (mouse (endogenous in mouse brain)) (UniProt Q9WVJ0)
T1 sequence: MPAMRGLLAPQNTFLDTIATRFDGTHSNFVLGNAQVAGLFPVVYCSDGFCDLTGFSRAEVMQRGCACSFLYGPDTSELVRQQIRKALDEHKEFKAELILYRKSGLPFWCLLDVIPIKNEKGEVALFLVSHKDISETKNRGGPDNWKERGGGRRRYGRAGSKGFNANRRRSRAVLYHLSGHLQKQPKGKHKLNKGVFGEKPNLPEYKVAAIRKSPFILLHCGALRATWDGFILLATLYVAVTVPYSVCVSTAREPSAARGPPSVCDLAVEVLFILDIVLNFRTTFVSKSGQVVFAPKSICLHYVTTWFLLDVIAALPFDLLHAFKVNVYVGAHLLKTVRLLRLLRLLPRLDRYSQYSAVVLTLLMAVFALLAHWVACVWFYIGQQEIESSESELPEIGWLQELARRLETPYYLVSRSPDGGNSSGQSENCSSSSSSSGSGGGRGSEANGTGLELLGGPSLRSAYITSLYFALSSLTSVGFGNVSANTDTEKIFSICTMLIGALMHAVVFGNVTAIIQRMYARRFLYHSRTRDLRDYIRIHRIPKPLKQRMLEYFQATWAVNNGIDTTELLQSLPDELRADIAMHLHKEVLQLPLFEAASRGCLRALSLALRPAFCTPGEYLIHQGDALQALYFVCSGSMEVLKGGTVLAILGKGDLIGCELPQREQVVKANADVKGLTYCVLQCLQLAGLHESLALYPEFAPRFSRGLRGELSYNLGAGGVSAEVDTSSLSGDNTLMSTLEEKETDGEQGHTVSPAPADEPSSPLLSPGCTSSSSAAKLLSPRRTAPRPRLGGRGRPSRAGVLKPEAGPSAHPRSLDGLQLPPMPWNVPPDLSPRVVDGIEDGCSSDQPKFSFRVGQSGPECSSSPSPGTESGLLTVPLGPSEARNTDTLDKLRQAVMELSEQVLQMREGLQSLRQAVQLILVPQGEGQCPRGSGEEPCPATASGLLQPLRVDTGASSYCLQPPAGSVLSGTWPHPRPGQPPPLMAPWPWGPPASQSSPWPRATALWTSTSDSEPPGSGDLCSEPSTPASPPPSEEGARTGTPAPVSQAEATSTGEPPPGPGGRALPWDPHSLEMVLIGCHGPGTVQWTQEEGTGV

T2: KCNE3 β-subunit (mouse (endogenous in mouse brain)) (UniProt Q9WTW2)
T2 sequence: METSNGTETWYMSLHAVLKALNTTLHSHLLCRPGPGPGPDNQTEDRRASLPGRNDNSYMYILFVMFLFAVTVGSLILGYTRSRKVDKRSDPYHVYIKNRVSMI

B1: Kv12.2 channel (natural protein, mouse (endogenous in mouse brain), UniProt Q9WVJ0 1-1095, looked up)
chain: T1 sequence
notes: Kv12.2 (ELK2, KCNH3) voltage-gated potassium channel alpha subunit, mouse, endogenous in brain; about 120 kDa monomer on a denaturing gel, about 500 kDa complex on a native gel; also called ELK2; KCNH3; source: endogenous, mouse brain membrane lysate (0.5% Igepal) or whole mouse brain lysate (1% digitonin)
B2: KCNE3 β-subunit (protein, UniProt Q9WTW2 1-103)
chain: T2 sequence

Experiments:
[1] = biological target: T1, Kv12.2 channel (mouse (endogenous in mouse brain)); assay: co-IP; native conditions, two-step: eluate of the first-round IP (anti-KCNE1 or anti-KCNE3) put on a second-round IP with anti-Kv12.2; 4-16% NativePAGE Bis-Tris gel, blot with anti-KCNE1 or anti-KCNE3
[2] = biological target: T1, Kv12.2 channel (mouse (endogenous in mouse brain)); assay: co-IP; adult mouse brain membrane pellet solubilised in IP buffer (50 mM Tris-Cl, 20 mM MgCl2, 150 mM NaCl, 0.5% Igepal, pH 7); antibody covalently conjugated to protein A/G sepharose beads, overnight at 4°C; SDS-PAGE and Western blot
[3] = biological target: T2, KCNE3 β-subunit (mouse (endogenous in mouse brain)); assay: as above
[4] = biological target: KCNE1 β-subunit (mouse (endogenous in mouse brain)) (UniProt P23299); assay: as above
[5] = biological target: T2, KCNE3 β-subunit (mouse (endogenous in mouse brain)); assay: co-IP; native conditions, first round: whole mouse brain lysate in NativePAGE sample buffer with 1% digitonin; anti-KCNE1 or anti-KCNE3 on protein A/G sepharose column, overnight at 4°C; 4-16% NativePAGE Bis-Tris gel, blot with anti-Kv12.2
[6] = biological target: KCNE1 β-subunit (mouse (endogenous in mouse brain)) (UniProt P23299); assay: as above

Row | Molecule | binding [1] | binding [2] | binding [3] | binding [4] | binding [5] | binding [6]
1 | KCNE1 β-subunit (from UniProt P23299 1-129) | binds | binds |  |  |  | 
2 | B1 |  |  | binds | binds | binds | binds
3 | B2 | binds | binds |  |  |  | 
